Assay: Analysis of metabolites in mice gut feces using LC-MS
Parameters: species or system mouse
Conditions: aged mice brains, microglia

CC(C)CCN [IAA, isoamylamine]
correlation with the expression of S100A8 (linear regression): significantly positively correlated
